Measurements: PubChem BioAssay AID2685 (National Center for Advancing Translational Sciences (NCATS), 2010)
This is one part of the list. Shown are side measurements of this screen, not its main read-out; they come without a call. Most of these compounds were active or inconclusive in the main read-out, so they are no random draw. Words in brackets tell the shape of the fitted curve; partial curves, single points and poor fits give uncertain potencies.

Experiment: qHTS Assay for Lipid Storage Modulators in Drosophila S3 Cells;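 on cell number change: cells counted by Cell Tracker Red CMTPX staining in the red channel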
Conditions: BODIPY lipid droplet fluorescence, 18-24 h; for cell number change: measured here: cell count max response, cells fed with added oleic acid
Method in brief: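 Drosophila S3 cells loaded with oleic acid (400 uM, as added) and compounds at several concentrations; lipid droplets imaged by 488-nm laser-scanning cytometry, 500–530 nm intensity and object ratio to cell channel. Percent activity normalized to 20 uM Triacsin C.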

[1] = measured here: lipid fluorescence (Fed channel) AC50, cells fed with added oleic acid
[2] = measured here: cell number channel AC50, cells fed with added oleic acid

Row | SMILES | AC50 [1] | cell number change [%] | AC50 [2]
1 | Cn1cc(Br)c(C(=O)NC(=S)Nc2ccc(S(N)(=O)=O)cc2)n1 | 29.1 µM [rising, single point] | – | –
2 | Cc1c(-n2cc(C(=O)O)c(=O)c3cc(F)c(N4CCCC4)c(F)c32)c(=O)n(-c2ccccc2)n1C | – | -0.753 | –
3 | Cc1ccc(C2CC(C(F)(F)F)n3nc(C(=O)NCc4ccco4)cc3N2)cc1 (centres undefined) | – | 2.73 | –
4 | CCOc1ccc(NC(=O)c2cccc3c2C(=O)N(Cc2cccnc2)C3)cc1 | 2.59 µM [rising, partial curve] | – | 2.31 µM [rising, partial curve]
5 | NNC(=O)c1csc(Cc2c(Cl)sc3ccc(Cl)cc23)n1 | 0.058 µM [falling, full curve, poor fit] | -26.8 | 0.00411 µM [falling, full curve, poor fit]
6 | CCOC(=O)c1ccc2c(c1)[nH]c(=S)n2CC | 5.17 µM [rising, partial curve, poor fit] | 24.8 | –
7 | O=C(CCN1C(=O)[C@@H]2Cc3ccccc3CN2C1=O)N[C@@H](Cc1ccccc1)C(=O)O | 29.1 µM [rising, single point] | 13.7 | –
8 | O=C(NCc1ccco1)c1cccc(S(=O)(=O)N2CCOCC2)c1 | 6.51 µM [rising, single point] | -2.04 | –
9 | COCCCN1C(=O)C(=O)/C(=C(/O)c2ccc(C)cc2)C1c1ccccc1 (centres undefined) | – | 3.76 | 0.00517 µM [falling, full curve, poor fit]
10 | COc1ccccc1NS(=O)(=O)c1ccc2c(c1)OCCO2 | 20.6 µM [rising, single point] | -0.403 | –
11 | CCOC(=O)Cc1csc(Nc2c(C)n(C)n(-c3ccccc3)c2=O)n1 | 6.51 µM [falling, single point] | 4.25 | –
12 | CC(C)(C)NC(=O)/C(=C/c1cccnc1)NC(=O)c1ccco1 | 7.31 µM [falling, partial curve, poor fit] | -31.2 | 14.6 µM [falling, partial curve, poor fit]
13 | CN(C)c1ccc(N=Nc2ccccc2C(=O)OCC(=O)N(C)c2ccccc2)cc1 | 25.9 µM [falling, partial curve] | -75.2 | 29.1 µM [falling, single point]
14 | Fc1ccc(COc2cccc3cccnc23)cc1 | – | -41.6 | –
15 | CCOc1cc(C(=O)N2CCc3cc(OC)c(OC)cc3C2)ccc1OC(F)F | – | 1.25 | –
16 | CC12CCC(C(=O)N3CCN(Cc4ccccc4)CC3)(OC1=O)C2(C)C (centres undefined) | – | 6.83 | –
17 | Cc1ccnc(SCc2cn3c(C)cc(C)nc3n2)n1 | – | 32.7 | –
18 | O=C(O)CC(NC(=O)c1cccc(F)c1)c1ccc(OC2CCCC2)cc1 (centres undefined) | 6.51 µM [rising, single point] | – | –
19 | Cn1c(SCC(=O)Nc2ccc(F)cc2)nc2c(c1=O)SCC2 | – | -7.62 | –
20 | C#CCOCCOCCOCCNc1nc(N2CCN(C(=O)CCCCCCCCCCNC(=O)Cn3cc(C[C@@H](C)O)nn3)CC2)nc(N2CCN(C(=O)CCCCCCCCCCNC(=O)[C@H](CO)n3cc(CCCSC)nn3)CC2)n1 | 6.51 µM [rising, single point] | 8.84 | 0.411 µM [falling, partial curve, poor fit]

Row | SMILES | AC50 [1] | cell number change [%] | AC50 [2]
21 | COc1ccc(NC(=O)c2sc3ncn(CC(=O)N4CCCCC4)c(=O)c3c2C)cc1OC | 32.6 µM [rising, single point] | 19.4 | –
22 | CCOc1ccccc1/C=N/n1c(COc2ccccc2)n[nH]c1=S | 0.326 µM [falling, full curve] | -15.3 | –
23 | CCC(C)(C)n1nnnc1C(C(C)C)N1CCSCC1 (centres undefined) | – | -18.8 | –
24 | COc1ccc(S(=O)(=O)NCc2cn3c(C)csc3n2)cc1F | 2.06 µM [rising, partial curve] | – | 2.31 µM [rising, partial curve]
25 | Cc1ccccc1C(=O)Nc1ccc(C(=O)N/N=C/c2ccc(O)cc2)cc1 | 29.1 µM [falling, single point] | -1.71 | –
26 | CCc1nc(CNC(=O)C2CCC(=O)N(CCc3ccc(OC)cc3)C2)cs1 (centres undefined) | – | 4.69 | –
27 | COc1ccc(-c2csc(NC(=O)C3CCN(c4ncnc5sc(C)c(C)c45)CC3)n2)cc1OC | – | 40 | 4.61 µM [rising, single point]
28 | O=C(NCc1ccco1)c1scc2c1OCCO2 | 29.1 µM [rising, single point] | -1.53 | –
29 | O=C(c1ccc2nccnc2c1)N1CCN(c2cccc(C(F)(F)F)c2)CC1 | 9.2 µM [falling, partial curve] | -42.2 | 29.1 µM [falling, single point]
30 | COc1ccc(C(=O)CCC(=O)N2CCN(c3cc(C)ccc3C)CC2)cc1 | – | 25.8 | 0.0731 µM [rising, full curve, poor fit]
31 | Cc1nn(C(=O)c2cccc([N+](=O)[O-])c2)c(C)c1Sc1ccccc1 | 2.06 µM [rising, full curve, poor fit] | 8.71 | –
32 | O=C1C2C3C=CC(C3)C2C(=O)N1c1cccnc1 (centres undefined) | – | 30.9 | 29.1 µM [rising, single point]
33 | O=C(Cc1ccccc1)N1CCc2ccccc21 | – | -36.7 | –
34 | Fc1cccc(/C=N/Nc2ccc(Cl)nn2)c1 | 16.4 µM [falling, single point] | -29 | –
35 | Cc1cc2c(n1-c1ccc(C(=O)O)cc1)CCCCC2 | 1.03 µM [falling, full curve] | 5.41 | 0.13 µM [falling, full curve, poor fit]
36 | CCCCC(=O)c1c(C)cc(C)[nH]c1=O | 29.1 µM [falling, single point] | -20.2 | –
37 | COC(=O)CC(c1ccc(C#N)cc1)n1c(C)ccc1C (centres undefined) | 25.9 µM [falling, single point] | -12 | –
38 | OCCNc1nc(Nc2ccc(Cl)c(Cl)c2)nc2ccccc12 | 2.31 µM [falling, full curve] | -69.3 | 18.4 µM [falling, partial curve]
39 | Nn1c(-c2ccccn2)nnc1-c1ccccn1 | 5.8 µM [rising, partial curve] | 130 | 9.2 µM [rising, partial curve]

As entered above:
AC50 [2] with COc1ccc(-c2csc(NC(=O)C3CCN(c4ncnc5sc(C)c(C)c45)CC3)n2)cc1OC reads 4.61 µM [rising, single point]
cell number change [%] with COc1ccc(NC(=O)c2sc3ncn(CC(=O)N4CCCCC4)c(=O)c3c2C)cc1OC reads 19.4
